The test deals with M. mycetomatis strain mm55. The note with it: primary screen, metabolic activity vs growth control, 96 h, 2 µM, inhibitor.

Where a name gives a salt, the structure may show the parent alone. Read-outs that look alike come from different tables or passages of the source. Among all 5,300 compounds or so, about 130 (2.5%) showed an effect of 50% or more. Some of the results follow.

On to `CCN(CC)C(=O)/C(C#N)=C/c1cc(O)c(O)c([N+](=O)[O-])c1` [ONC0004538, entacapone], for which the “% viability” value came to 54.37%.
Regarding `C[C@H]1OC(O)[C@H](O)[C@H](O)[C@H]1O` (some centres unmarked) [ONC0004779, l rhamnose monohydrate], the “% viability” value is on record as 103.9%.
Same read-out and setting: for `CN(C)CCN(C)CCc1ccc(Cl)c(Cl)c1` [ONC0000240, bd1047] the value was 69.13%; for `S=C(NCCc1ccccn1)Nc1ccc(Br)cn1` [ONC0002520, trovirdine], 50.89%.
Turning to `CCCCCCCCCCCCOS(=O)(=O)O` [ONC0002181, sodiumdodecylsulfate], the “% viability” value (Madurella mycetomatis metabolic activity at 2µM (%)) came out at 96.71%.
For `C[C@@H]1O[C@@H](OC[C@H]2O[C@@H](Oc3c(-c4ccc(OCCO)c(OCCO)c4)oc4cc(OCCO)cc(O)c4c3=O)[C@H](O)[C@@H](O)[C@@H]2O)[C@H](O)[C@H](O)[C@H]1O` [ONC0005511, troxerutin], the “% viability” value was determined as 76.48%.
As for `Nc1nc(N)nc(NC2CC2)n1` [ONC0003991, cyromazine], the “% viability” value was 70.81%.
In the case of `CCCC(=O)C1CCN(c2ncnc3c2CN(C(=O)c2ccc(-c4ccccc4)cc2)CC3)CC1` [ONC0001406, pkthpp], the “% viability” value is reported as 99.71%.
Still for that read-out and setting: for `CC1(C)O[C@@H]2C[C@H]3[C@@H]4CCC5=CC(=O)CC[C@]5(C)[C@@]4(F)[C@@H](O)C[C@]3(C)[C@]2(C(=O)CCl)O1` [ONC0005110, halcinonide] the value was 121%; for `CCCCCCCCCCCCCCCC(=O)OC[C@H](COP(=O)([O-])OCC[N+](C)(C)C)OC(=O)CCCCCCCCCCCCCCC` [ONC0003939, colfoscerilpalmitate], 68.76%.
Same read-out and setting: the value for `N#Cc1ccc(COC[C@H]2O[C@@H](n3c(NCc4ccc(Cl)c(Cl)c4)nc4c(N)ncnc43)[C@H](O)[C@@H]2O)cc1` [ONC0003150, ver155008] was 71.46%; that for `O=C(O)/C=C/c1c[nH]cn1` [ONC0003737, cisurocanicacid] was 146.4%.
On the same count and under the same terms, the value for `C[C@]12C=CC(=O)C=C1CC[C@H]1[C@@H]3C[C@@H](O)[C@](O)(C(=O)CO)[C@@]3(C)C[C@H](O)[C@@]12F` [ONC0005317, triamcinolone] was 97.58%; that for `COc1cccc(Nc2c(C(N)=O)cnc3c(C)cc(S(=O)(=O)c4cccc(C(=O)N(C)C)c4)cc23)c1` [ONC0004382, gsk256066] was 115.4%.
On to `Nc1c(CC(=O)O)cccc1C(=O)c1ccc(Br)cc1` [ONC0005181, bromfenac sodium], for which the “% viability” value came out at 92.06%.
Still for that read-out and setting: for `OCCN1CCN(CCCN2c3ccccc3C=Cc3ccccc32)CC1` [ONC0002368, opipramol] the value was 62.79%; for `C=CCNc1nc(NCC=C)nc(N2CCN(C(c3ccc(F)cc3)c3ccc(F)cc3)CC2)n1` [ONC0003264, almitrine dimesilate], 84.51%; for `COc1cc2c(cc1OCCCN1CCCC1)N=C(N)C21CCC1` [ONC0001507, a366], 112.1%.
Still for that read-out and setting: the value for `CN1C(=O)OC(C)(C)C1=O` [ONC0004222, trimethadione] was 96.24%; that for `CC(=O)CCCCn1c(=O)c2c(ncn2C)n(C)c1=O` [ONC0002382, pentoxifylline] was 116.2%; that for `CC(C)NC[C@H](O)COc1cccc2ccccc12` [ONC0000523, dexpropranolol hydrochloride r] was 63.41%.
On the same count and under the same terms, for `O=C(O)CCCCC(CCSCc1ccccc1)SCc1ccccc1` (centres unmarked) [ONC0005053, cpi613] the value was 152%.
On to `CC1(C)CC[C@]2(C(=O)O)CC[C@]3(C)C(=CC[C@@H]4[C@@]5(C)CC[C@H](O)C(C)(C)[C@@H]5CC[C@]43C)[C@@H]2C1` [ONC0004932, oleanolic acid caryophyllin], for which the “% viability” value is on record as 92.73%.
Same read-out and setting: the value for `O=c1c(-c2ccc(O)cc2)coc2cc(O)ccc12` [ONC0001487, daidzein] was 80.72%; that for `Cc1c(C(=O)Nc2ccc(N3CCC(N4CCOCC4)CC3)c(C#N)c2)cnn1-c1ccc(Cl)cc1` [ONC0004434, y320] was 145.6%.
As to `N[C@@H](Cc1cc(CP(=O)(O)O)cc(-c2ccccc2Cl)c1)C(=O)O` [ONC0001567, sdz220581], the “% viability” value is on record as 105.2%.
Regarding `CC(C)=CCc1c(O)cc(O)c2c(=O)c(O)c(-c3ccc(C(F)(F)F)cc3)oc12` [ONC0001270, sng1153], the “% viability” value was found to be 67.11%.
In the case of `CC(C)(C)c1nc(-c2cccc(NS(=O)(=O)c3c(F)cccc3F)c2F)c(-c2ccnc(N)n2)s1` [ONC0005271, dabrafenib gsk2118436], the “% viability” value was 115.1%.
Still for that read-out and setting: for `CC[C@H](C(=O)N1CCCC[C@H]1C(=O)O[C@H](CCc1ccc(OC)c(OC)c1)c1cccc(OCC(=O)NCCNC(=O)COc2cccc([C@@H](CCc3ccc(OC)c(OC)c3)OC(=O)[C@@H]3CCCCN3C(=O)[C@@H](CC)c3cc(OC)c(OC)c(OC)c3)c2)c1)c1cc(OC)c(OC)c(OC)c1` [ONC0002247, rimiducid] the value was 119.4%.

The record behind these values is publication PMC12670160, “A drug-repurposing screen of FDA- and EMA-approved drugs identifies two NF-κB inhibitors active against eumycetoma” (Journal of Antimicrobial Chemotherapy, 2025).
